Assay results as given in publication PMC7405549.
These are yes or no findings as the source states them, for the method shown. Binding seen in cells or lysates may run through a third protein.

The chains behind the UniProt entries cited, without tags or fusion partners.
UniProt P10417: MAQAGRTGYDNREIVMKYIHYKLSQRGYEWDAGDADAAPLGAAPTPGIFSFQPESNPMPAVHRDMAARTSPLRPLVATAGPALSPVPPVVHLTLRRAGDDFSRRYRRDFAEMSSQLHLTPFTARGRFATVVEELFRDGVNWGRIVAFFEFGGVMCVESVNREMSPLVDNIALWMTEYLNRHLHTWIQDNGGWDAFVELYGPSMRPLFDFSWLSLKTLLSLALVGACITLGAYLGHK

Target: T1, Acheron/Larp6 (mouse) (mouse (endogenous in C2C12)) (UniProt Q8BN59)
T1 sequence: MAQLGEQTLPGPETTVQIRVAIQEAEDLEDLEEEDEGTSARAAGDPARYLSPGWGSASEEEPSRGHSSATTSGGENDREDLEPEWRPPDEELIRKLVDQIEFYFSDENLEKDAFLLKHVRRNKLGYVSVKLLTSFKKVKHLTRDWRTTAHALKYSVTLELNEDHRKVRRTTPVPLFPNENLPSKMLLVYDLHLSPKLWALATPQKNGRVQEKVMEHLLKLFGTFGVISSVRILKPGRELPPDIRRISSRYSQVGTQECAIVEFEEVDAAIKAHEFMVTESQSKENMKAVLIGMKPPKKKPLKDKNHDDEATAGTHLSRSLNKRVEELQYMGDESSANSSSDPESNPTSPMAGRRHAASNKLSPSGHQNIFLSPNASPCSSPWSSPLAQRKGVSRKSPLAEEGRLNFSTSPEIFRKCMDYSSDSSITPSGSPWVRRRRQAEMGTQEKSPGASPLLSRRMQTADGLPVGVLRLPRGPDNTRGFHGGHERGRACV
Test: co-IP; mouse C2C12 myoblast lysates (400-500 ug) with rabbit polyclonal anti-Acheron antibody (1:200) overnight at 4°C, protein A sepharose; 10 mM Tris pH 7.4, 1% triton, 0.5% NP-40, 150 mM NaCl; immunoblot for partners

binding: no binding
Substance: Bcl-2 (mouse) (from UniProt P10417 1-236)
